Taken from: PubChem BioAssay AID652243 (Drosophila RNAi Screening Center, 2013)

Aim: 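Fly regulators of androgen-dependent reporter output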 (primary screen)
System: Drosophila S2R+ cells
Reagent: long dsRNA against Drosophila genes
Timing: 72 h (48 h, then 24 h hormone)
Challenge: synthetic androgen R1881 at 10 nM for 24 h
Measured: 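Firefly light from an androgen-responsive reporter and Renilla control light per well, raw and unnormalised, for each of two replicates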
Scale: firefly reporter light: higher = more light from androgen-responsive reporter; Renilla control light: higher = more constitutive control signal (cell number, transfection)
Call rule: 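Hit when the log firefly-to-Renilla ratio dropped or increased by a fixed fold versus the mean of GFP or LacZ controls across duplicate plates; lowering cut given as 1.5 and as 3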
Meaning of the calls: active = hit: reporter lowered or raised; inactive = no hit
In all, the deposit lists about 24,000 reagents; this is an unselected part of those with a known target gene and a result. Of all reagents, 246 (1%) got an active call. 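Plates not normalised; calls are printed but the firefly/Renilla ratio behind them is not deposited; fold cut for lowering reported inconsistently.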 The raw values are shown without normalisation. The numbers tell different reagents against one gene apart. Names joined by + are all predicted targets of the reagent. The record does not give: the amount of reagent.

| gene knocked down | reagent | firefly reporter light, replicate 1 | firefly reporter light, replicate 2 | Renilla control light, replicate 1 | Renilla control light, replicate 2 | Outcome |
| --- | --- | --- | --- | --- | --- | --- |
| Cp19 (GeneID 39000) | 1 | 1.35e5 | 1.09e5 | 1.71e6 | 1.54e6 | inactive |
| Cp19 (GeneID 39000) | 2 | 6.20e5 | 4.72e5 | 1.45e6 | 1.75e6 | inactive |
| CG16824 (GeneID 5740834) | 1 | 2.11e5 | 1.92e5 | 1.02e6 | 1.16e6 | inactive |
| Fur1 (GeneID 47220) | 1 | 60947 | 38040 | 1.07e5 | 1.14e5 | inactive |
| Fur1 (GeneID 47220) | 2 | 60029 | 76705 | 5.20e5 | 4.80e5 | inactive |
| ppk22 (GeneID 318593) | 1 | 9.10e5 | 8.56e5 | 1.85e6 | 1.93e6 | inactive |
| CG15096 (GeneID 37170) | 1 | 2.72e5 | 3.76e5 | 7.38e5 | 7.38e5 | inactive |
| CG15096 (GeneID 37170) | 2 | 3.10e5 | 2.97e5 | 8.88e5 | 1.08e6 | inactive |
| CG13331 (GeneID 36503) | 1 | 58008 | 59387 | 1.26e6 | 1.26e6 | inactive |
| Or47a (GeneID 36187) | 1 | 2.45e5 | 2.54e5 | 1.21e6 | 1.41e6 | inactive |
| hh (GeneID 42737) | 1 | 1.35e5 | 1.63e5 | 1.95e6 | 2.31e6 | inactive |
| hh (GeneID 42737) | 2 | 2.33e5 | 2.83e5 | 1.23e6 | 1.65e6 | active |
| hh (GeneID 42737) | 3 | 8.50e5 | 9.35e5 | 1.90e6 | 1.86e6 | inactive |
| lncRNA:CR41443 (GeneID 12798069) | 1 | 8.92e5 | 4.33e5 | 1.94e6 | 1.33e6 | inactive |
| CG18823 (GeneID 59184) | 1 | 2.25e5 | 2.10e5 | 3.53e6 | 2.16e6 | inactive |
| CG42380 + CG42379 + PIG-M + 1 more | 1 | 2.36e5 | 1.22e5 | 2.70e5 | 1.74e5 | inactive |
| CG42380 + CG42379 + PIG-M + 1 more | 2 | 8.18e5 | 9.38e5 | 2.42e6 | 2.45e6 | inactive |
| Osi5 (GeneID 40759) | 1 | 94009 | 1.18e5 | 2.19e6 | 2.62e6 | inactive |
| ppk20 (GeneID 43486) | 1 | 1.95e5 | 1.87e5 | 2.36e6 | 2.43e6 | inactive |
| ppk20 (GeneID 43486) | 2 | 4.35e5 | 5.46e5 | 1.44e6 | 1.73e6 | inactive |
| CG14712 (GeneID 41397) | 1 | 25679 | 33234 | 4.00e5 | 2.52e5 | inactive |
| CG13065 (GeneID 39786) | 1 | 2.03e5 | 1.38e5 | 1.84e6 | 1.34e6 | inactive |
| CG13065 (GeneID 39786) | 2 | 5.01e5 | 3.93e5 | 1.49e6 | 1.54e6 | inactive |
| CG7402 (GeneID 39994) | 1 | 1.89e5 | 1.57e5 | 2.12e6 | 1.67e6 | inactive |
| blo (GeneID 35866) | 1 | 8.39e5 | 6.95e5 | 1.04e6 | 1.01e6 | inactive |
| blo (GeneID 35866) | 2 | 3.84e5 | 3.19e5 | 7.46e5 | 6.35e5 | inactive |
| ec (GeneID 31339) | 1 | 1.72e5 | 2.37e5 | 4.03e6 | 3.12e6 | inactive |
| ec (GeneID 31339) | 2 | 5.74e5 | 4.52e5 | 5.16e5 | 5.08e5 | inactive |
| spn-A (GeneID 43577) | 1 | 1.89e5 | 1.67e5 | 1.83e6 | 2.45e6 | inactive |
| Usp10 (GeneID 38103) | 1 | 4.49e5 | 3.85e5 | 8.80e5 | 8.13e5 | inactive |
| Usp10 (GeneID 38103) | 2 | 36025 | 49951 | 5.67e5 | 5.71e5 | inactive |
| Rab3GAP1 (GeneID 33338) | 1 | 1.13e5 | 96240 | 6.04e5 | 8.77e5 | inactive |
| Rab3GAP1 (GeneID 33338) | 2 | 1.52e5 | 1.12e5 | 1.31e6 | 1.01e6 | inactive |
| Rab3GAP1 (GeneID 33338) | 3 | 4.74e5 | 4.54e5 | 1.00e6 | 1.17e6 | inactive |
| Syx17 (GeneID 38541) | 1 | 7.09e5 | 4.12e5 | 1.74e6 | 1.94e6 | inactive |
| CG15143 (GeneID 35062) | 1 | 1.70e5 | 1.70e5 | 1.85e6 | 2.01e6 | inactive |
| RpL13 (GeneID 34329) | 1 | 2.37e5 | 2.57e5 | 1.95e6 | 2.09e6 | inactive |
| Prosbeta6 (GeneID 39855) | 1 | 14053 | 12187 | 1.89e5 | 1.77e5 | inactive |
| Afg3l2 (GeneID 39922) | 1 | 70055 | 35728 | 4.20e5 | 4.18e5 | inactive |
| Afg3l2 (GeneID 39922) | 2 | 5.18e5 | 5.05e5 | 1.42e6 | 1.56e6 | inactive |
| CG11898 (GeneID 43451) | 1 | 5.59e5 | 5.44e5 | 1.97e6 | 1.16e6 | inactive |
| CG11898 (GeneID 43451) | 2 | 4.78e5 | 4.61e5 | 1.57e6 | 1.34e6 | inactive |
| CG32036 (GeneID 39105) | 1 | 8.07e5 | 3.95e5 | 6.63e5 | 5.56e5 | inactive |
| CG32036 (GeneID 39105) | 2 | 6.21e5 | 4.52e5 | 2.16e6 | 1.63e6 | inactive |
| Rgk1 (GeneID 14462605) | 1 | 93931 | 92683 | 2.36e5 | 3.07e5 | inactive |
| Rgk1 (GeneID 14462605) | 2 | 1.09e5 | 1.12e5 | 2.58e5 | 4.01e5 | inactive |
| Rgk1 (GeneID 14462605) | 3 | 69467 | 74602 | 1.21e6 | 9.47e5 | inactive |
| Rgk1 (GeneID 14462605) | 4 | 6.39e5 | 5.38e5 | 8.00e5 | 8.12e5 | inactive |
| Rgk1 (GeneID 14462605) | 5 | 4.94e5 | 4.83e5 | 7.13e5 | 6.93e5 | inactive |
| Dred (GeneID 40124) | 1 | 2.99e5 | 2.16e5 | 2.69e6 | 2.36e6 | inactive |
| Dred (GeneID 40124) | 2 | 3.29e5 | 4.41e5 | 2.50e6 | 3.54e6 | inactive |
| unc-4 (GeneID 32757) | 1 | 2.41e5 | 3.66e5 | 2.44e6 | 2.71e6 | inactive |
| unc-4 (GeneID 32757) | 2 | 5.31e5 | 5.98e5 | 2.50e6 | 2.15e6 | inactive |
| unc-4 (GeneID 32757) | 3 | 7.20e5 | 6.75e5 | 1.43e6 | 6.82e5 | inactive |
| CG6614 (GeneID 34583) | 1 | 7.95e5 | 1.26e6 | 1.09e6 | 1.72e6 | inactive |
| CG10175 (GeneID 42773) | 1 | 1.26e5 | 1.22e5 | 1.15e5 | 1.98e5 | inactive |
| CG10175 (GeneID 42773) | 2 | 1.69e5 | 2.64e5 | 3.27e6 | 3.10e6 | inactive |
| CG10175 (GeneID 42773) | 3 | 6.38e5 | 5.99e5 | 1.39e6 | 1.61e6 | inactive |
| CG13305 (GeneID 38992) | 1 | 8.99e5 | 8.71e5 | 1.19e6 | 1.36e6 | inactive |
| CG12499 (GeneID 42637) | 1 | 3.51e5 | 2.55e5 | 3.33e6 | 3.15e6 | inactive |
| CG31102 (GeneID 326118) | 1 | 2.86e5 | 2.98e5 | 3.32e6 | 2.97e6 | inactive |
| CG31102 (GeneID 326118) | 2 | 3.03e5 | 3.33e5 | 6.81e5 | 7.11e5 | inactive |
| Dus3 (GeneID 35264) | 1 | 1.34e5 | 1.29e5 | 1.15e6 | 1.12e6 | inactive |
| Dus3 (GeneID 35264) | 2 | 9.01e5 | 8.01e5 | 1.02e6 | 7.68e5 | inactive |
| CG31019 (GeneID 318558) | 1 | 1.25e6 | 5.45e5 | 3.90e6 | 1.71e6 | active |
| CG31019 (GeneID 318558) | 2 | 5.38e5 | 5.02e5 | 6.13e5 | 5.20e5 | inactive |
| Dph3 (GeneID 41352) | 1 | 1.30e5 | 1.49e5 | 1.62e6 | 1.72e6 | inactive |
| Dph3 (GeneID 41352) | 2 | 9.27e5 | 1.20e6 | 7.44e5 | 9.51e5 | inactive |
| CG13068 (GeneID 39784) | 1 | 2.31e5 | 2.05e5 | 3.72e6 | 2.82e6 | inactive |
| CG13068 (GeneID 39784) | 2 | 2.81e5 | 2.39e5 | 6.19e5 | 6.86e5 | inactive |
| CG8852 (GeneID 33577) | 1 | 96836 | 80246 | 7.19e5 | 4.30e5 | inactive |
| CG8852 (GeneID 33577) | 2 | 7.82e5 | 5.96e5 | 1.05e6 | 8.46e5 | inactive |
| Pex7 (GeneID 38994) | 1 | 1.49e5 | 1.41e5 | 1.93e6 | 1.46e6 | inactive |
| CG13231 (GeneID 36169) | 1 | 4.67e5 | 3.19e5 | 2.77e6 | 2.62e6 | inactive |
| CG13231 (GeneID 36169) | 2 | 6.53e5 | 7.25e5 | 7.10e5 | 8.99e5 | inactive |

A run of entries of the results above, as a working copy:
| gene knocked down | reagent | firefly reporter light, replicate 1 | firefly reporter light, replicate 2 | Renilla control light, replicate 1 | Renilla control light, replicate 2 | Outcome |
| --- | --- | --- | --- | --- | --- | --- |
| blo (GeneID 35866) | 1 | 8.39e5 | 6.95e5 | 1.04e6 | 1.01e6 | inactive |
| blo (GeneID 35866) | 2 | 3.84e5 | 3.19e5 | 7.46e5 | 6.35e5 | inactive |
| ec (GeneID 31339) | 1 | 1.72e5 | 2.37e5 | 4.03e6 | 3.12e6 | inactive |
| ec (GeneID 31339) | 2 | 5.74e5 | 4.52e5 | 5.16e5 | 5.08e5 | inactive |
| spn-A (GeneID 43577) | 1 | 1.89e5 | 1.67e5 | 1.83e6 | 2.45e6 | inactive |
| Usp10 (GeneID 38103) | 1 | 4.49e5 | 3.85e5 | 8.80e5 | 8.13e5 | inactive |
| Usp10 (GeneID 38103) | 2 | 36025 | 49951 | 5.67e5 | 5.71e5 | inactive |
| Rab3GAP1 (GeneID 33338) | 1 | 1.13e5 | 96240 | 6.04e5 | 8.77e5 | inactive |
| Rab3GAP1 (GeneID 33338) | 2 | 1.52e5 | 1.12e5 | 1.31e6 | 1.01e6 | inactive |
| Rab3GAP1 (GeneID 33338) | 3 | 4.74e5 | 4.54e5 | 1.00e6 | 1.17e6 | inactive |
